Measured values reported in US20230295226A1.
No constants are given. Whether binding was seen depends on the method and setting. Some binding calls cover weakened binding; strength is not graded here.

Molecular target: T1, asialofetuin (UniProt P12763)
T1 sequence (glycoprotein; desialylated glycans, described as L-fucose bearing, looked up): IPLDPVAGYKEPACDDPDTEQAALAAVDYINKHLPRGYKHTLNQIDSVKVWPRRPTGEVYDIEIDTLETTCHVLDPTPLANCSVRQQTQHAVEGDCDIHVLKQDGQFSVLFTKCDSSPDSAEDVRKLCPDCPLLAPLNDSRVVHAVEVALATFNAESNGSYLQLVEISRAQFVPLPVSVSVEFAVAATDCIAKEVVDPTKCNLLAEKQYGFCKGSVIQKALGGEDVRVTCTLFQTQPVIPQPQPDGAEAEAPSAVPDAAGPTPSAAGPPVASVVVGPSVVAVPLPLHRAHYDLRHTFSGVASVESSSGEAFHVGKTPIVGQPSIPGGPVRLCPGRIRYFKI
Assay: ITC

In the case of YASPKCFRYPNGVLACT (cyclic through a disulfide bond Cys6-Cys16 (cyclo[C6...C16])) [Odorranalectin (OL)], the binding is reported as “binds”.
